Results as given in paper PMC10646014.

Target: SETD5 deletion mutant N (N-terminal part), FLAG-tagged (human)
Test: co-IP; 293 T cells co-transfected with 3× FLAG-tagged SETD5 (WT or deletion mutants N, Mid, C) and MYC-OGT; 100 nM OGA inhibitor (Thiamet-G) for 24 h in Fig. 3A; immunoprecipitated by FLAG-affinity gel, western blot

B1: MYC-tagged OGT (O-GlcNAc transferase) in 293 T cells (enzyme, UniProt O15294 1-1046)
chain: MASSVGNVADSTEPTKRMLSFQGLAELAHREYQAGDFEAAERHCMQLWRQEPDNTGVLLLLSSIHFQCRRLDRSAHFSTLAIKQNPLLAEAYSNLGNVYKERGQLQEAIEHYRHALRLKPDFIDGYINLAAALVAAGDMEGAVQAYVSALQYNPDLYCVRSDLGNLLKALGRLEEAKACYLKAIETQPNFAVAWSNLGCVFNAQGEIWLAIHHFEKAVTLDPNFLDAYINLGNVLKEARIFDRAVAAYLRALSLSPNHAVVHGNLACVYYEQGLIDLAIDTYRRAIELQPHFPDAYCNLANALKEKGSVAEAEDCYNTALRLCPTHADSLNNLANIKREQGNIEEAVRLYRKALEVFPEFAAAHSNLASVLQQQGKLQEALMHYKEAIRISPTFADAYSNMGNTLKEMQDVQGALQCYTRAIQINPAFADAHSNLASIHKDSGNIPEAIASYRTALKLKPDFPDAYCNLAHCLQIVCDWTDYDERMKKLVSIVADQLEKNRLPSVHPHHSMLYPLSHGFRKAIAERHGNLCLDKINVLHKPPYEHPKDLKLSDGRLRVGYVSSDFGNHPTSHLMQSIPGMHNPDKFEVFCYALSPDDGTNFRVKVMAEANHFIDLSQIPCNGKAADRIHQDGIHILVNMNGYTKGARNELFALRPAPIQAMWLGYPGTSGALFMDYIITDQETSPAEVAEQYSEKLAYMPHTFFIGDHANMFPHLKKKAVIDFKSNGHIYDNRIVLNGIDLKAFLDSLPDVKIVKMKCPDGGDNADSSNTALNMPVIPMNTIAEAVIEMINRGQIQITINGFSISNGLATTQINNKAATGEEVPRTIIVTTRSQYGLPEDAIVYCNFNQLYKIDPSTLQMWANILKRVPNSVLWLLRFPAVGEPNIQQYAQNMGLPQNRIIFSPVAPKEEHVRRGQLADVCLDTPLCNGHTTGMDVLWAGTPMVTMPGETLASRVAASQLTCLGCLELIAKNRQEYEDIAVKLGTDLEYLKKVRGKVWKQRISSPLFNTKQYTMELERLYLQMWEHYAAGNKPDHMIKPVEVTESA
binding: no binding

No constants are given. Whether binding was seen depends on the method and setting. In cells and extracts the contact can be indirect. Sequences can lack the tags named with a protein.
